{"source": "the supplement of paper PMC4604168 (melanoma cell lines)", "note": "The other results are listed elsewhere or left out. Repeats are few or missing, and single values can be far off.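 The apoptosis fraction was the count of cleaved-PARP antibody-stained nuclei relative to all DNA-stained nuclei, imaged in 1,536-well plates. Screening doses were set so most cells survived, and baseline and induced cleaved-PARP levels vary greatly across cell lines.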"}
{"system": "A2058", "assay": "cleaved PARP positive nuclei fraction relative to DMSO control; melanoma cells; higher = more apoptosis", "details": "library dose: low library concentration; 72 h", "units": {"cleaved PARP positive nuclei fraction": "%"}}
{"smiles": "CC1(C)CCC(c2ccc(Cl)cc2)=C(CN2CCN(c3ccc(C(=O)NS(=O)(=O)c4ccc(N[C@H](CCN5CCOCC5)CSc5ccccc5)c(S(=O)(=O)C(F)(F)F)c4)cc3)CC2)C1", "note": "+ Cc1cc([N+](=O)[O-])ccc1NS(=O)(=O)c1cc(Cl)ccc1Cl [FH535] (first compound 0.4 µM, partner dose 1 µM)", "cleaved PARP positive nuclei fraction": 60.4}
{"smiles": "CCN(CC)CCNC(=O)c1c(C)[nH]c(/C=C2\\C(=O)Nc3ccc(F)cc32)c1C", "note": "[sunitinib] + Cc1cc([N+](=O)[O-])ccc1NS(=O)(=O)c1cc(Cl)ccc1Cl [FH535] (first compound 0.4 µM, partner dose 1 µM)", "cleaved PARP positive nuclei fraction": 87.5}
{"smiles": "Cn1sc(=O)n(Cc2ccccc2)c1=O", "note": "+ COc1cc2ncnc(Nc3ccc(Oc4ccccc4)cc3)c2cc1OC [SrcI1] (first compound 0.4 µM, partner dose 2 µM)", "cleaved PARP positive nuclei fraction": 63.5}
{"smiles": "NC1(c2ccc(-c3nc4ccn5c(=O)[nH]nc5c4cc3-c3ccccc3)cc2)CCC1", "note": "+ COC(=O)c1sccc1S(=O)(=O)Nc1ccc(Nc2ccccc2)cc1OC [GSK0660] (first compound 0.4 µM, partner dose 1 µM)", "cleaved PARP positive nuclei fraction": 86.9}
{"smiles": "CN(c1ncccc1CNc1nc(Nc2ccc3c(c2)CC(=O)N3)ncc1C(F)(F)F)S(C)(=O)=O", "note": "+ CC(C)CCN1c2nc(Nc3cc(F)c(O)c(F)c3)ncc2N(C)C(=O)C1C [BID1870] (first compound 0.08 µM, partner dose 0.2 µM)", "cleaved PARP positive nuclei fraction": 85}
{"smiles": "Cn1sc(=O)n(Cc2ccccc2)c1=O", "note": "+ O=C(Nc1ccccc1)c1cc([N+](=O)[O-])ccc1Cl [GW9662] (first compound 0.4 µM, partner dose 2 µM)", "cleaved PARP positive nuclei fraction": 53.5}
{"smiles": "NC(=O)c1ccc(N(C(N)=O)c2c(F)cccc2F)nc1-c1ccc(F)cc1F", "note": "+ Cn1cc(/C=C2\\C(=O)Nc3cccnc32)c2ccccc21 [GW441756] (first compound 0.4 µM, partner dose 0.4 µM)", "cleaved PARP positive nuclei fraction": 22.6}
{"smiles": "CCN(CC)CCNC(=O)c1c(C)[nH]c(/C=C2\\C(=O)Nc3ccc(F)cc32)c1C", "note": "[sunitinib] + COC(=O)c1sccc1S(=O)(=O)Nc1ccc(Nc2ccccc2)cc1OC [GSK0660] (first compound 0.4 µM, partner dose 1 µM)", "cleaved PARP positive nuclei fraction": 166}
{"smiles": "Cn1sc(=O)n(Cc2ccccc2)c1=O", "note": "+ CC(C)CCN1c2nc(Nc3cc(F)c(O)c(F)c3)ncc2N(C)C(=O)C1C [BID1870] (first compound 0.4 µM, partner dose 0.2 µM)", "cleaved PARP positive nuclei fraction": 136}
{"smiles": "Cn1sc(=O)n(Cc2ccccc2)c1=O", "note": "+ COc1cc(N2CCC(N3CCN(C)CC3)CC2)ccc1Nc1ncc(Cl)c(Nc2ccccc2S(=O)(=O)C(C)C)n1 [NVP-TAE684] (first compound 0.4 µM, partner dose 0.08 µM)", "cleaved PARP positive nuclei fraction": 79.4}
{"smiles": "NC1(c2ccc(-c3nc4ccn5c(=O)[nH]nc5c4cc3-c3ccccc3)cc2)CCC1", "note": "+ CCc1ccc(CCOc2ccc(CC3SC(=O)NC3=O)cc2)nc1 [pioglitazone] (first compound 0.4 µM, partner dose 2 µM)", "cleaved PARP positive nuclei fraction": 108}
{"smiles": "NC(=O)c1ccc(N(C(N)=O)c2c(F)cccc2F)nc1-c1ccc(F)cc1F", "note": "+ COc1cc(N2CCC(N3CCN(C)CC3)CC2)ccc1Nc1ncc(Cl)c(Nc2ccccc2S(=O)(=O)C(C)C)n1 [NVP-TAE684] (first compound 0.4 µM, partner dose 0.08 µM)", "cleaved PARP positive nuclei fraction": 72.6}
{"smiles": "NC1(c2ccc(-c3nc4ccn5c(=O)[nH]nc5c4cc3-c3ccccc3)cc2)CCC1", "note": "+ Cc1cc([N+](=O)[O-])ccc1NS(=O)(=O)c1cc(Cl)ccc1Cl [FH535] (first compound 0.4 µM, partner dose 1 µM)", "cleaved PARP positive nuclei fraction": 23.2}
{"smiles": "Cn1cnc2c(F)c(Nc3ccc(Br)cc3Cl)c(C(=O)NOCCO)cc21", "note": "[selumetinib] + Cn1cc(/C=C2\\C(=O)Nc3cccnc32)c2ccccc21 [GW441756] (first compound 0.015 µM, partner dose 0.4 µM)", "cleaved PARP positive nuclei fraction": 46.8}
{"smiles": "CC(=O)O[C@@]12CO[C@@H]1C[C@H](O)[C@@]1(C)C(=O)[C@H](O)C3=C(C)[C@@H](OC(=O)[C@H](O)[C@@H](NC(=O)OC(C)(C)C)c4ccccc4)C[C@@](O)([C@@H](OC(=O)c4ccccc4)[C@H]21)C3(C)C", "note": "[Docetaxel] + COc1ccc2c(c1)CCC1C2CCC2(C)C(NCCCCCCN3C(=O)C=CC3=O)CCC12 [U73122] (first compound 0.0001 µM, partner dose 0.4 µM)", "cleaved PARP positive nuclei fraction": 3120}
{"smiles": "CN(c1ncccc1CNc1nc(Nc2ccc3c(c2)CC(=O)N3)ncc1C(F)(F)F)S(C)(=O)=O", "note": "+ Oc1cc(-c2nc(-c3ccccc3)[nH]c2-c2ccncc2)ccc1Cl [L779450] (first compound 0.08 µM, partner dose 0.2 µM)", "cleaved PARP positive nuclei fraction": 58.6}
{"smiles": "CCN(CC)CCNC(=O)c1c(C)[nH]c(/C=C2\\C(=O)Nc3ccc(F)cc32)c1C", "note": "[sunitinib] + O=c1cc(-c2cccc3c2Sc2ccccc2S3)oc(N2CCOCC2)c1 [KU55933] (first compound 0.4 µM, partner dose 1 µM)", "cleaved PARP positive nuclei fraction": 169}
{"smiles": "CC1(C)CCC(c2ccc(Cl)cc2)=C(CN2CCN(c3ccc(C(=O)NS(=O)(=O)c4ccc(N[C@H](CCN5CCOCC5)CSc5ccccc5)c(S(=O)(=O)C(F)(F)F)c4)cc3)CC2)C1", "note": "+ COC(=O)c1sccc1S(=O)(=O)Nc1ccc(Nc2ccccc2)cc1OC [GSK0660] (first compound 0.4 µM, partner dose 1 µM)", "cleaved PARP positive nuclei fraction": 124}
{"smiles": "COc1ccc(C2=N[C@@H](c3ccc(Cl)cc3)[C@@H](c3ccc(Cl)cc3)N2C(=O)N2CCNC(=O)C2)c(OC(C)C)c1", "note": "[Nutlin-3] + COc1ccc(COc2ccc(Cc3cnc(N)nc3N)cc2OC)cc1 [GW2580] (first compound 0.1 µM, partner dose 1 µM)", "cleaved PARP positive nuclei fraction": 59.7}
{"smiles": "Cn1cnc2c(F)c(Nc3ccc(Br)cc3Cl)c(C(=O)NOCCO)cc21", "note": "[selumetinib] + COc1ccc2c(c1)CCC1C2CCC2(C)C(NCCCCCCN3C(=O)C=CC3=O)CCC12 [U73122] (first compound 0.015 µM, partner dose 0.4 µM)", "cleaved PARP positive nuclei fraction": 55.1}
{"smiles": "CC(=O)O[C@@]12CO[C@@H]1C[C@H](O)[C@@]1(C)C(=O)[C@H](O)C3=C(C)[C@@H](OC(=O)[C@H](O)[C@@H](NC(=O)OC(C)(C)C)c4ccccc4)C[C@@](O)([C@@H](OC(=O)c4ccccc4)[C@H]21)C3(C)C", "note": "[Docetaxel] + Cn1cc(/C=C2\\C(=O)Nc3cccnc32)c2ccccc21 [GW441756] (first compound 0.0001 µM, partner dose 0.4 µM)", "cleaved PARP positive nuclei fraction": 3630}
{"smiles": "NC(=O)c1ccc(N(C(N)=O)c2c(F)cccc2F)nc1-c1ccc(F)cc1F", "note": "+ O=C(Nc1ccccc1)c1cc([N+](=O)[O-])ccc1Cl [GW9662] (first compound 0.4 µM, partner dose 2 µM)", "cleaved PARP positive nuclei fraction": 35.9}
{"smiles": "CC1(C)CCC(c2ccc(Cl)cc2)=C(CN2CCN(c3ccc(C(=O)NS(=O)(=O)c4ccc(N[C@H](CCN5CCOCC5)CSc5ccccc5)c(S(=O)(=O)C(F)(F)F)c4)cc3)CC2)C1", "note": "+ O=C(Nc1ccccc1)c1cc([N+](=O)[O-])ccc1Cl [GW9662] (first compound 0.4 µM, partner dose 2 µM)", "cleaved PARP positive nuclei fraction": 194}
{"smiles": "CCN(CC)CCNC(=O)c1c(C)[nH]c(/C=C2\\C(=O)Nc3ccc(F)cc32)c1C", "note": "[sunitinib] + COc1ccc(COc2ccc(Cc3cnc(N)nc3N)cc2OC)cc1 [GW2580] (first compound 0.4 µM, partner dose 1 µM)", "cleaved PARP positive nuclei fraction": 78.3}
{"smiles": "NC(=O)c1ccc(N(C(N)=O)c2c(F)cccc2F)nc1-c1ccc(F)cc1F", "note": "+ O=c1cc(-c2cccc3c2Sc2ccccc2S3)oc(N2CCOCC2)c1 [KU55933] (first compound 0.4 µM, partner dose 1 µM)", "cleaved PARP positive nuclei fraction": 72.1}
{"smiles": "CCN(CC)CCNC(=O)c1c(C)[nH]c(/C=C2\\C(=O)Nc3ccc(F)cc32)c1C", "note": "[sunitinib] + c1cc(-c2cnn3cc(-c4ccc(OCCN5CCCCC5)cc4)cnc23)ccn1 [Dorsomorphin] (first compound 0.4 µM, partner dose 0.4 µM)", "cleaved PARP positive nuclei fraction": 110}
{"smiles": "C[C@]1(O)C[C@@H](c2nc(-c3ccc4ccc(-c5ccccc5)nc4c3)c3c(N)nccn32)C1", "note": "+ Oc1nc(-c2ccc(C(F)(F)F)cc2)nc2c1CSCC2 [XAV939] (first compound 0.4 µM, partner dose 2 µM)", "cleaved PARP positive nuclei fraction": 78.5}
{"smiles": "C[C@@H](N)c1ccc(C(=O)Nc2ccnc3[nH]ccc23)cc1", "note": "+ COc1ccc(-c2ccc3c(N4CCOCC4)nc(N4C[C@@H](C)O[C@@H](C)C4)nc3n2)cc1CO [KU0063794] (first compound 0.4 µM, partner dose 0.02 µM)", "cleaved PARP positive nuclei fraction": 163}
{"smiles": "CCCCCCCCc1ccc(CCC(N)(CO)CO)cc1", "note": "[fingolimod] + O=C(O)C(=O)Nc1sc2c(c1C(=O)O)CCNC2 [TCS401] (first compound 2 µM, partner dose 1.66667 µM)", "cleaved PARP positive nuclei fraction": 32.4}
{"smiles": "CCN(CC)CCNC(=O)c1c(C)[nH]c(/C=C2\\C(=O)Nc3ccc(F)cc32)c1C", "note": "[sunitinib] + Cn1cc(/C=C2\\C(=O)Nc3cccnc32)c2ccccc21 [GW441756] (first compound 0.4 µM, partner dose 0.4 µM)", "cleaved PARP positive nuclei fraction": 76.4}
{"smiles": "CC1(C)CCC(c2ccc(Cl)cc2)=C(CN2CCN(c3ccc(C(=O)NS(=O)(=O)c4ccc(N[C@H](CCN5CCOCC5)CSc5ccccc5)c(S(=O)(=O)C(F)(F)F)c4)cc3)CC2)C1", "note": "+ c1cc(-c2cnn3cc(-c4ccc(OCCN5CCCCC5)cc4)cnc23)ccn1 [Dorsomorphin] (first compound 0.4 µM, partner dose 0.4 µM)", "cleaved PARP positive nuclei fraction": 38}
